From patent publication US20240002501A1
Results are given in words; binding and its absence hold for the method and conditions named. Some entries that bind do so weakly or less than the wild type.

Sequences of proteins named here, by UniProt entry; tags and fusion partners are left off. Residues count along the entry.
UniProt P32004, residues 20-1120: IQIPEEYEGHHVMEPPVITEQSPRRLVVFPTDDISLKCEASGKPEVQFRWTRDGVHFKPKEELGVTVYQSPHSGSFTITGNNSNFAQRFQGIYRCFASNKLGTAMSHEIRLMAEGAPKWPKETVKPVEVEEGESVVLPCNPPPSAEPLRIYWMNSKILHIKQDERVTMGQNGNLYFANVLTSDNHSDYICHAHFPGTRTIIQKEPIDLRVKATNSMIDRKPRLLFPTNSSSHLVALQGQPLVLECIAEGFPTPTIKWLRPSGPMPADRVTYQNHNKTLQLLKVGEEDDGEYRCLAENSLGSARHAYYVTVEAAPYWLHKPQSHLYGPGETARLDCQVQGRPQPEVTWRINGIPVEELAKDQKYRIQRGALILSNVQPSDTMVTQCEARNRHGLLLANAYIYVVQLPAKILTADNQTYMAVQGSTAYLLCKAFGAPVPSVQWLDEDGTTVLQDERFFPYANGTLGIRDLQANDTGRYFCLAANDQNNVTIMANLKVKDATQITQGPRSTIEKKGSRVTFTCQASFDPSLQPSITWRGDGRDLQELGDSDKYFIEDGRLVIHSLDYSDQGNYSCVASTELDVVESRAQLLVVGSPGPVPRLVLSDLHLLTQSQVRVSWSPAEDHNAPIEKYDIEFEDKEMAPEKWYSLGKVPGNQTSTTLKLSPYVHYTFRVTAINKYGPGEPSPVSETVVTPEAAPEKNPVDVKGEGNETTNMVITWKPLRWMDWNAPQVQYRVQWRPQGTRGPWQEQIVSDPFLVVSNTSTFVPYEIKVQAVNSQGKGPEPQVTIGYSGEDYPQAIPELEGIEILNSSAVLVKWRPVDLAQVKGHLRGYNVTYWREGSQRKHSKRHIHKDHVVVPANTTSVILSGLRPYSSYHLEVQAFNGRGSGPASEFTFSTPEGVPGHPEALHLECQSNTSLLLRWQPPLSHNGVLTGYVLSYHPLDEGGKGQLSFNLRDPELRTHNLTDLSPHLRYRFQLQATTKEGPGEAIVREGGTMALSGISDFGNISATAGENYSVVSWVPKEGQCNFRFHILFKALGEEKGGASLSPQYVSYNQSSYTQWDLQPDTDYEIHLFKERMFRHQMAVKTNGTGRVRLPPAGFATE

Assays:
L1-CAM-Fc [1] = target: L1-CAM-Fc (UniProt P32004); experiment: SPR (Biacore T100), L1-CAM-Fc immobilized on CM5 chip
L1-CAM-Fc [2] = target: L1-CAM-Fc (UniProt P32004); experiment: SPR sensorgram (Biacore T100), L1-CAM-Fc immobilised on CM5 chip
L1-CAM-Fc [3] = target: L1-CAM-Fc (UniProt P32004); experiment: worded affinity comparison; the filing's affinity assay is SPR on L1-CAM-Fc (FIG. 28-30)

Measured: binding

B1: huE72-IgG1 (huE72 H1/L2) (antibody, V domains shown)
VH: QVQLVQPGAEVVKPGASVKLSCKASGYTFTGYWMHWVKQAPGQGLEWIGEINPSNGRTNYNERFKSKATLTVDKSITTAFMELSRLRSDDTAVYFCARDYYGTSYNFDYWGQGTLLTVSS
VL: DIQMTQSPSSLSVSVGDRVTITCKANEDINNRLAWYQQKPGKAPKLLISGATNLVTGVPSRFSGSGSGTDYTLTISSLQPEDFATYYCQQYWSTPFTFGQGTELEIKR
binds: L1-CAM-Fc [1] | L1-CAM-Fc [2] | L1-CAM-Fc [3]
